In article doi:10.1101/2022.07.15.500188:
Results are given in words; binding and its absence hold for the method and conditions named. Binding seen in cells or lysates may run through a third protein. Some entries that bind do so weakly or less than the wild type. Sequences can lack the tags named with a protein.

Target: T1, HMGN5-GFP (human HMGN5 with C-terminal GFP, HMGN5-FlpIn cell line) (human) (UniProt P82970)
T1 sequence: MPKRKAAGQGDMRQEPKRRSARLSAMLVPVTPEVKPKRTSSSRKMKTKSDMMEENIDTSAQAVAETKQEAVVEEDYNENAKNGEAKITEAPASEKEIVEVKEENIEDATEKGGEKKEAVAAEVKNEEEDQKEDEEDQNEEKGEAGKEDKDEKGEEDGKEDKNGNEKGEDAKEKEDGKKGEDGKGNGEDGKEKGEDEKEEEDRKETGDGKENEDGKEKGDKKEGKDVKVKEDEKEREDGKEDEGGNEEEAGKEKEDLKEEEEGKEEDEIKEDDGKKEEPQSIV
Experiment: co-IP

B1: CTCF (protein, UniProt P49711 1-727)
chain: MEGDAVEAIVEESETFIKGKERKTYQRRREGGQEEDACHLPQNQTDGGEVVQDVNSSVQMVMMEQLDPTLLQMKTEVMEGTVAPEAEAAVDDTQIITLQVVNMEEQPINIGELQLVQVPVPVTVPVATTSVEELQGAYENEVSKEGLAESEPMICHTLPLPEGFQVVKVGANGEVETLEQGELPPQEDPSWQKDPDYQPPAKKTKKTKKSKLRYTEEGKDVDVSVYDFEEEQQEGLLSEVNAEKVVGNMKPPKPTKIKKKGVKKTFQCELCSYTCPRRSNLDRHMKSHTDERPHKCHLCGRAFRTVTLLRNHLNTHTGTRPHKCPDCDMAFVTSGELVRHRRYKHTHEKPFKCSMCDYASVEVSKLKRHIRSHTGERPFQCSLCSYASRDTYKLKRHMRTHSGEKPYECYICHARFTQSGTMKMHILQKHTENVAKFHCPHCDTVIARKSDLGVHLRKQHSYIEQGKKCRYCDAVFHERYALIQHQKSHKNEKRFKCDQCDYACRQERHMIMHKRTHTGEKPYACSHCDKTFRQKQLLDMHFKRYHDPNFVPAAFVCSKCGKTFTRRNTMARHADNCAGPDGVEGENGGETKKSKRGRKRKMRSKKEDSSDSENAEPDLDDNEDEEEPAVEIEPEPEPQPVTPAPPPAKKRRGRPPGRTNQPKQNQPTAIIQVEDQNTGAIENIIVEVKKEPDAEPAEGEEEEAQPAATDAPNGDLTPEMILSMMDR
  binding: binds
